Biological target: glutathione S-transferase (Schistosoma japonicum GST tag binding GSH beads)
Assay: GST–glutathione bead interaction interference profiling – biochemical, multiplex beads, flow cytometry, profiling panel (AID 1769);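 further: target is a GST and green fluorescent protein fusion captured on glutathione beads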
Conditions: flow cytometry fluorescence

Compound: N#Cc1c(-c2cccc(Br)c2)cc(-c2ccco2)[nH]c1=O
- EC50: 49.2 µM

From PubChem BioAssay AID1769 (NMMLSC, 2009)
